PubChem BioAssay AID662 (National Center for Advancing Translational Sciences (NCATS), 2007)
The list shows a part of the results. Shown are side measurements of this screen, not its main read-out; they come without a call. Compounds called inactive in the main read-out are mostly missing here. Potencies come from curve fits of mixed quality, noted in brackets.

test: Cell signaling CRE-BLA (Fsk stim); conditions: CHO CRE-bla reporter (cAMP response element driving beta-lactamase), forskolin EC10, beta-lactamase ratio; measured here: 460 nm blue channel
How it was run: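 Using CellSensor CRE-bla CHO cells in Opti-MEM with 0.5% dialyzed FBS, compounds were titrated with EC10 NKH 477 for 3 h at 37 °C. CCF4 ratio (460/530 nm) gave %Activity; AC50 derived.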

Row | SMILES | AC50
1 | O=C1CC2(CCCCC2)Oc2ccc(O)cc21 | 5.01 µM [falling, partial curve]
2 | CCCC1CCC(C(=O)Nn2c(C)nc3ccccc3c2=O)CC1 (stereo not drawn) | 3.98 µM [rising, single point]
3 | COc1ccc(C(C)=O)cc1COC(=O)Cc1n[nH]c(=O)c2ccccc12 | 10 µM [rising, single point]
4 | CCn1nc(C(=O)OCC(=O)NCCN2C(=O)CSC2=O)c2ccccc2c1=O | 10 µM [rising, partial curve]
5 | CN(C)S(=O)(=O)N1CCCN(S(=O)(=O)N(C)C)CC1 | 0.00316 µM [falling, full curve, poor fit]
6 | CCOC(=O)C1CCN(C(=O)Nc2ccc3nc(C)c(C)nc3c2)CC1 | 20 µM [rising, single point]
7 | Oc1ccc(Cl)cc1/C=N/c1nccs1 | 0.158 µM [rising, full curve]
8 | CCOC(=O)c1[nH]cnc1C(=O)Nc1ccncc1 | 10 µM [rising, partial curve]
9 | CCOC(=O)C1CCN(C(=O)C2CCN(S(=O)(=O)c3c(C)noc3C)CC2)CC1 | 5.01 µM [rising, single point]
10 | Cc1[nH]nc(-c2ccc(O)cc2O)c1-c1ccc(Cl)cc1 | 0.316 µM [falling, single point]
11 | COc1cccc(C2CC(c3ccccc3Cl)n3ncnc3N2)c1 (stereo not drawn) | 12.6 µM [rising, single point]
12 | O=C(c1cnccn1)N1CCC2(CC1)CCN(C(c1ccccc1)c1ccccc1)CC2 | 15.8 µM [falling, single point]
13 | CC(C)c1cccc2c([Si](C)(C)C)c3c(nc12)-c1cccc(=O)n1C3 | 6.31 µM [rising, partial curve]
14 | COc1ccc2[nH]cc(CCNc3ccnc(-c4ccc(N(C)C)cc4)n3)c2c1 | 1.58 µM [rising, full curve]
15 | COc1ccc(OCc2nnc3n2N=C(c2ccc(C)cc2)CS3)cc1 | 12.6 µM [rising, partial curve]
16 | COc1cccc(C2=NOC(C(=O)Nc3cccc(C(C)=O)c3)C2)c1OC (stereo not drawn) | 12.6 µM [rising, single point]
17 | COc1cc(NS(=O)(=O)c2ccc(OC)c(C)c2C)c(OC)cc1Cl | 20 µM [rising, single point]
18 | CCOC(=O)c1c(NC(=O)c2ccc(Br)o2)sc(C)c1CC | 6.31 µM [rising, partial curve]
19 | COc1cccc(Nc2ncc3nc(-c4ccc(Cl)cc4)c(=O)n(C[C@H]4CCCO4)c3n2)c1 | 2.51 µM [rising, full curve]
20 | Cc1cc2c(C)nc(-c3ccccc3)nc2o1 | 0.316 µM [rising, full curve]
21 | COc1cc(Cl)ccc1NC(=O)COc1ccccc1C(=O)N1CCN(c2ccc(O)cc2)CC1 | 3.16 µM [rising, single point]
22 | C=CCn1c2ccccc2c2nnc(SCC(=O)NC(C(=O)OC)C(C)C)nc21 (stereo not drawn) | 5.01 µM [rising, partial curve]
23 | COc1cc2c(cc1OC)C1=C(C#N)CCC(=O)N1CC2 | 0.316 µM [rising, full curve]

Row | SMILES | AC50
24 | COc1ccc(OC)c(NC(=O)C(CC(C)C)NC(=O)C2CCCCC2)c1 (stereo not drawn) | 0.316 µM [falling, partial curve, poor fit]
25 | COc1ccc(-n2nnnc2SCC(=O)c2cc3ccccc3o2)cc1 | 3.16 µM [falling, full curve]
26 | CCOC(=O)c1c(NC(=O)CSc2nnc(-c3cccnc3)o2)sc(C(C)=O)c1C | 25.1 µM [falling, single point]
27 | Cc1nnc2n1NC(c1ccc(Cl)cc1)C(C(=O)N1CCC(C)CC1)S2 (stereo not drawn) | 5.01 µM [falling, single point]
28 | Cc1ccc(-c2nnc3ccc(SCC(=O)N4CCCCC4)nn23)cc1 | 0.00316 µM [falling, full curve, poor fit]
29 | CC1CCCCN1S(=O)(=O)c1ccc2c(c1)oc(=O)n2CC(=O)O (stereo not drawn) | 7.94 µM [rising, partial curve]
30 | CC1CCN(c2nc(-c3ccco3)c3c(c2C#N)CC(C)(C)OC3)CC1 | 10 µM [rising, partial curve]
31 | Clc1ss/c(=N\c2ccccn2)c1Cl | 10 µM [falling, single point]
32 | N#Cc1nc(-c2ccccc2F)oc1NCc1cccc2c1OCO2 | 12.6 µM [rising, partial curve]
33 | O=C(Nc1nnc(C2CC2)s1)c1cccc(S(=O)(=O)N2CCc3ccccc32)c1 | 12.6 µM [rising, partial curve]
34 | CSCC[C@H](NC(=O)OC(C)(C)C)c1nnc(SCc2ccccc2)o1 | 3.16 µM [rising, single point]
35 | Cc1noc(C)c1-c1nccc(NCc2cccnc2)n1 | 10 µM [rising, partial curve]
36 | CCCN1Cc2cccc(C(=O)NCc3ccccc3)c2C1=O | 10 µM [rising, partial curve]
37 | Cn1c(=O)c2c(nc(N3CCN(Cc4ccccc4)CC3)n2CCSc2ncccn2)n(C)c1=O | 25.1 µM [rising, single point]
38 | CCNc1nc(N2CCOCC2)nc(N(c2ccccc2)c2ccccc2)n1 | 5.01 µM [falling, single point]
39 | Cc1nc2cnc(N3CCOCC3)nc2n(C2CC2)c1=O | 12.6 µM [rising, partial curve]
40 | Cc1ccc(S(=O)(=O)Nc2c(C)n(C)n(-c3ccccc3)c2=O)cc1C(=O)NCc1ccccn1 | 0.126 µM [falling, full curve, poor fit]
41 | CCCCOc1ccc(-c2nnc(-c3ccncc3)o2)cc1 | 0.00316 µM [falling, full curve, poor fit]
42 | O=c1[nH]c2cc3c(cc2cc1C(c1nnnn1C1CCCC1)N1CCSCC1)OCCO3 (stereo not drawn) | 3.98 µM [rising, full curve]
43 | COc1cc2c(=O)n(Cc3ccco3)c(=O)n(CC(=O)c3cccc(Br)c3)c2cc1OC | 2.51 µM [rising, full curve]
44 | O=C(Cn1cccc1C(=O)c1ccccc1)NCc1ccco1 | 0.126 µM [falling, full curve, poor fit]
45 | N#Cc1c(NC(=O)CSc2nnc(-c3ccncc3)n2CC2CCCO2)sc2c1CCCC2 (stereo not drawn) | 10 µM [rising, partial curve]
46 | CC(SC1CCCC1)C(=O)Nc1ccnn1C(C)C (stereo not drawn) | 5.01 µM [falling, single point]

Part of the list above, as tab-separated lines.
Row	SMILES	AC50
34	CSCC[C@H](NC(=O)OC(C)(C)C)c1nnc(SCc2ccccc2)o1	3.16 µM [rising, single point]
37	Cn1c(=O)c2c(nc(N3CCN(Cc4ccccc4)CC3)n2CCSc2ncccn2)n(C)c1=O	25.1 µM [rising, single point]
40	Cc1ccc(S(=O)(=O)Nc2c(C)n(C)n(-c3ccccc3)c2=O)cc1C(=O)NCc1ccccn1	0.126 µM [falling, full curve, poor fit]

In another format: 2 of the compounds above
Row,SMILES,AC50
38,CCNc1nc(N2CCOCC2)nc(N(c2ccccc2)c2ccccc2)n1,"5.01 µM [falling, single point]"
39,Cc1nc2cnc(N3CCOCC3)nc2n(C2CC2)c1=O,"12.6 µM [rising, partial curve]"

Continued.

Row | SMILES | AC50
47 | CCOc1ccc(-c2nnc(N(CC)C(=O)C3CCC3)s2)cc1 | 12.6 µM [rising, single point]
48 | Cc1ccc(S(=O)(=O)/C=C\C#N)cc1 | 2.51 µM [falling, partial curve]
49 | COc1ccccc1-c1nc2s/c(=C\c3cccs3)c(=O)n2n1 | 1 µM [falling, partial curve]
50 | CCCC(=O)OCCNC(=O)c1cc2ccccc2oc1=O | 1 µM [rising, partial curve]
51 | Cc1cc(=O)n2[nH]c(-c3ccc(Cl)cc3)cc2n1 | 5.01 µM [rising, single point]
52 | CCC(C)(C)NC(=O)CN(CC1CCCO1)C(=O)CCC(=O)Nc1nccs1 (stereo not drawn) | 0.126 µM [rising, full curve, poor fit]
53 | COc1ccc(S(=O)(=O)N(C)CC(=O)N2CCCCCC2)cc1OC | 10 µM [rising, partial curve]
54 | COc1ccccc1C1/C(=C(/O)c2ccc(Cl)cc2)C(=O)C(=O)N1CCN1CCOCC1 (stereo not drawn) | 5.01 µM [falling, partial curve, poor fit]
55 | O=C1C(Cl)=C(N2CCOCC2)C(=O)N1c1ccccc1Cl | 1.58 µM [falling, partial curve, poor fit]
56 | CC1(C)OC(=O)N(c2ccccn2)C1(C)O (stereo not drawn) | 3.98 µM [rising, single point]
57 | Cc1cccn2c(=O)c3cc(C#N)c(=NC(=O)c4ccc5c(c4)OCO5)n(CC(C)C)c3nc12 | 0.631 µM [rising, partial curve, poor fit]
58 | O=C(CCCCCn1c(=S)[nH]c2cc3c(cc2c1=O)OCO3)N1CCN(Cc2ccccc2)CC1 | 15.8 µM [rising, single point]
59 | Cc1ccc(-c2c(C)c(-c3ccc(F)cc3)nc(N)c2C#N)o1 | 3.16 µM [falling, full curve]
60 | CC(C)CNC(=O)c1cc(-c2ccc(Br)cc2)on1 | 25.1 µM [rising, single point]
61 | CCN(CC)S(=O)(=O)c1ccc2c3c(cccc13)C(=O)N2 | 10 µM [rising, partial curve]
62 | Cc1cccn2cc(CNC(=O)C3CCCCC3)nc12 | 3.16 µM [rising, single point]
63 | O=C(NCC(c1cccnc1)N1CCOCC1)Nc1ccccc1 (stereo not drawn) | 0.158 µM [falling, single point]
64 | CCn1nc(C(=O)OCC(=O)N2CCc3ccccc32)c2ccccc2c1=O | 5.01 µM [rising, partial curve]
65 | CC(C(=O)Nc1cccnc1)N1C(=O)C2C3C=CC(C3)C2C1=O (stereo not drawn) | 0.398 µM [falling, full curve]
66 | CCCCCC(=O)Nc1ccc2oc(-c3ccncc3)nc2c1 | 20 µM [rising, single point]
67 | CCCCn1c(NCCC)nc2c1c(=O)[nH]c(=O)n2C | 10 µM [rising, single point]
68 | O=C(CSc1nnc(-c2ccncc2)n1CC1CCCO1)NCc1ccccc1 (stereo not drawn) | 0.1 µM [falling, partial curve, poor fit]
